Article PMC7825749
These are yes or no findings as the source states them, for the method shown. Binding seen in cells or lysates may run through a third protein. Some results given as binding are weak or reduced against the parent protein; the word gives no strength.

Sequences of proteins named here, by UniProt entry; tags and fusion partners are left off.
UniProt Q13887: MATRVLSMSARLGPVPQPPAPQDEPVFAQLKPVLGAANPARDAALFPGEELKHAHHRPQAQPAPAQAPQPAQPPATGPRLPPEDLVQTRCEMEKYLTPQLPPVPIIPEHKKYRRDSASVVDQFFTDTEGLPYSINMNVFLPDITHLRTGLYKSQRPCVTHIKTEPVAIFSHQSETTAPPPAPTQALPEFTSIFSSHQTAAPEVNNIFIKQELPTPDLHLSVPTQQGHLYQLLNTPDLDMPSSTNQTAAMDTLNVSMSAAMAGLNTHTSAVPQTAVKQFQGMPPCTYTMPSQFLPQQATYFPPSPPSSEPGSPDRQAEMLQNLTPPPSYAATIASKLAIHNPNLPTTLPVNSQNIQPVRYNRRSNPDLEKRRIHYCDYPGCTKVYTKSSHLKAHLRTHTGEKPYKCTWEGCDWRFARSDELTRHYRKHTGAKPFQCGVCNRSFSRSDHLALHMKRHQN
UniProt Q16665: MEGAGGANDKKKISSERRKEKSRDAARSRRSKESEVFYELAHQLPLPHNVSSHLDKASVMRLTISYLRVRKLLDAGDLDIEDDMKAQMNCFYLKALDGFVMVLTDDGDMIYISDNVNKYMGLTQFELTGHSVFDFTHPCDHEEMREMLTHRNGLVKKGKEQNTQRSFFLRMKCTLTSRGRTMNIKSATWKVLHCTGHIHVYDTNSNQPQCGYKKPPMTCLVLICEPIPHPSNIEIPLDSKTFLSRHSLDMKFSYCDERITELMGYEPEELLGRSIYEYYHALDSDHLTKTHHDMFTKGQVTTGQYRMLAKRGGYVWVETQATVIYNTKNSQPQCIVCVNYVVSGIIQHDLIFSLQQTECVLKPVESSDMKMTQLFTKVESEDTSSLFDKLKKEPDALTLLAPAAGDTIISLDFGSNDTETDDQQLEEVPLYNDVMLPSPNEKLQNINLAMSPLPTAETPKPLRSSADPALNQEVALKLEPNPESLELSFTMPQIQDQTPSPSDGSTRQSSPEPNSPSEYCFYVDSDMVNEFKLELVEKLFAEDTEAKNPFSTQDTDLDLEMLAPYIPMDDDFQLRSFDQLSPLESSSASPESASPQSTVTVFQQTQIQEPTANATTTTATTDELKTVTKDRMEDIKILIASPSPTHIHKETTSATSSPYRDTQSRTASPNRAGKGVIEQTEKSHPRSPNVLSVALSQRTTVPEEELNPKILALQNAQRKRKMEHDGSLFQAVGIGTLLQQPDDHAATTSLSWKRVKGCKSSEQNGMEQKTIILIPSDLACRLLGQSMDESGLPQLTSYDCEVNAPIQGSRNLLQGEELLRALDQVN

Experiments:
[1] = molecular target: Krüppel-like factor 5 (KLF5) (human (endogenous in BCPAP and TPC-1)) (UniProt Q13887); experiment: co-IP; lysates of BCPAP and TPC-1 PTC cells immunoprecipitated with KLF5 antibody or IgG, immunoblot for HIF-1α; also after treatment of the cells with ML264 at indicated doses for 6 h (binding markedly decreased)
[2] = molecular target: HIF-1α (human (endogenous in BCPAP and TPC-1)) (UniProt Q16665); experiment: co-IP; lysates of BCPAP and TPC-1 PTC cells immunoprecipitated with HIF-1α antibody or IgG, immunoblot for KLF5

HIF-1α (from UniProt Q16665 1-826)
binding [1]: binds

Krüppel-like factor 5 (KLF5) (from UniProt Q13887 1-457)
binding [2]: binds
